# The other results are listed elsewhere or left out. Single values are uncertain, as repeats are few or missing.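 The apoptosis fraction was the count of cleaved-PARP antibody-stained nuclei relative to all DNA-stained nuclei, imaged in 1,536-well plates. Screening doses were set so most cells survived, and baseline and induced cleaved-PARP levels vary greatly across cell lines.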
# Tested on: CBRC034 (line from a melanoma biopsy)
# Test: cleaved PARP positive nuclei fraction relative to DMSO control; melanoma cells; higher = more apoptosis
# Conditions: library dose: low library concentration; 72 h
row,SMILES,cleaved PARP positive nuclei fraction
1,"NCC(=O)Nc1ccc(-n2nc(C(F)(F)F)cc2-c2ccc3c(ccc4ccccc43)c2)cc1 + O=S(=O)(c1ccccc1)N(CC(F)(F)F)c1ccc(C(O)(C(F)(F)F)C(F)(F)F)cc1 [T0901317] (first compound 1 µM, partner dose 1.4 µM)",65.8%
2,"CCCCCCCCCCCC1=C(O)C(=O)C=C(O)C1=O [Embelin] + CC(C)CCN1c2nc(Nc3cc(F)c(O)c(F)c3)ncc2N(C)C(=O)C1C [BID1870] (first compound 1.2 µM, partner dose 0.2 µM)",177%
3,"CCc1ccc(CCOc2ccc(CC3SC(=O)NC3=O)cc2)nc1 (stereo unspecified) [pioglitazone] + Oc1nc(-c2ccc(C(F)(F)F)cc2)nc2c1CSCC2 [XAV939] (first compound 2 µM, partner dose 2 µM)",98.8%
4,"COc1ccc2c(c1)CCC1C2CCC2(C)C(NCCCCCCN3C(=O)C=CC3=O)CCC12 (stereo unspecified) + COc1cc2ncnc(Nc3ccc(Oc4ccccc4)cc3)c2cc1OC [SrcI1] (first compound 0.4 µM, partner dose 2 µM)",114%
5,"COc1ccc2c(c1)CCC1C2CCC2(C)C(NCCCCCCN3C(=O)C=CC3=O)CCC12 (stereo unspecified) + Oc1cc(-c2nc(-c3ccccc3)[nH]c2-c2ccncc2)ccc1Cl [L779450] (first compound 0.4 µM, partner dose 0.2 µM)",143%
6,"COc1cc2ncnc(Nc3ccc(Oc4ccccc4)cc3)c2cc1OC + Cc1cc([N+](=O)[O-])ccc1NS(=O)(=O)c1cc(Cl)ccc1Cl [FH535] (first compound 2 µM, partner dose 1 µM)",418%
7,"O=C(Nc1ccccc1)c1cc([N+](=O)[O-])ccc1Cl + CCN(CC)CCCCNc1ncc2cc(-c3cc(OC)cc(OC)c3)c(NC(=O)NC(C)(C)C)nc2n1 [PD173074] (first compound 2 µM, partner dose 0.1 µM)",115%
8,"N#Cc1c(O)c2c(-c3ccc(-c4ccccc4O)cc3)csc2[nH]c1=O + O=C(O)C(=O)Nc1sc2c(c1C(=O)O)CCNC2 [TCS401] (first compound 2 µM, partner dose 1.66667 µM)",60.4%
9,"NCC(=O)Nc1ccc(-n2nc(C(F)(F)F)cc2-c2ccc3c(ccc4ccccc43)c2)cc1 + Cc1cc([N+](=O)[O-])ccc1NS(=O)(=O)c1cc(Cl)ccc1Cl [FH535] (first compound 1 µM, partner dose 1 µM)",447%
10,"CCc1ccc(CCOc2ccc(CC3SC(=O)NC3=O)cc2)nc1 (stereo unspecified) [pioglitazone] + CCCCCCCCCCCC1=C(O)C(=O)C=C(O)C1=O [Embelin] (first compound 2 µM, partner dose 1.2 µM)",75.7%
11,"Oc1nc(-c2ccc(C(F)(F)F)cc2)nc2c1CSCC2 + CCCCCCCCCCCC1=C(O)C(=O)C=C(O)C1=O [Embelin] (first compound 2 µM, partner dose 1.2 µM)",80.8%
12,"Cc1cc([N+](=O)[O-])ccc1NS(=O)(=O)c1cc(Cl)ccc1Cl + COc1cc(N2CCC(N3CCN(C)CC3)CC2)ccc1Nc1ncc(Cl)c(Nc2ccccc2S(=O)(=O)C(C)C)n1 [NVP-TAE684] (first compound 1 µM, partner dose 0.08 µM)",196%
13,"COc1cc2ncnc(Nc3ccc(Oc4ccccc4)cc3)c2cc1OC + Cn1cc(/C=C2\C(=O)Nc3cccnc32)c2ccccc21 [GW441756] (first compound 2 µM, partner dose 0.4 µM)",83.4%
14,"CN(C)S(=O)(=O)c1ccc2c(c1)/C(=C/c1cc3c([nH]1)CCCC3)C(=O)N2 + O=C1NC(=O)/C(=C/c2ccc(-c3ccc(F)cc3O)o2)S1 [AS252424] (first compound 0.4 µM, partner dose 1 µM)",111%
15,"COc1cc2ncnc(Nc3ccc(Oc4ccccc4)cc3)c2cc1OC + CCCCCCCCCCCC1=C(O)C(=O)C=C(O)C1=O [Embelin] (first compound 2 µM, partner dose 1.2 µM)",41.6%
16,"O=C(O)c1ccc(-c2c[nH]c3ncc(-c4ccccc4)cc23)cc1C1CCCC1 + COc1cc2ncnc(Nc3ccc(Oc4ccccc4)cc3)c2cc1OC [SrcI1] (first compound 0.16 µM, partner dose 2 µM)",77.4%
17,"NCC(=O)Nc1ccc(-n2nc(C(F)(F)F)cc2-c2ccc3c(ccc4ccccc43)c2)cc1 + Oc1cc(-c2nc(-c3ccccc3)[nH]c2-c2ccncc2)ccc1Cl [L779450] (first compound 1 µM, partner dose 0.2 µM)",89.5%
18,"COc1cc2c(Oc3ccc4[nH]c(C)cc4c3F)ncnc2cc1OCCCN1CCCC1 [cediranib] + O=C1NC(=O)/C(=C/c2ccc(-c3ccc(F)cc3O)o2)S1 [AS252424] (first compound 0.4 µM, partner dose 1 µM)",21.2%

row,SMILES,cleaved PARP positive nuclei fraction
1,"CN(C)S(=O)(=O)c1ccc2c(c1)/C(=C/c1cc3c([nH]1)CCCC3)C(=O)N2 + Cn1cc(/C=C2\C(=O)Nc3cccnc32)c2ccccc21 [GW441756] (first compound 0.4 µM, partner dose 0.4 µM)",87.7%
2,"N#Cc1c(O)c2c(-c3ccc(-c4ccccc4O)cc3)csc2[nH]c1=O + Cn1cc(/C=C2\C(=O)Nc3cccnc32)c2ccccc21 [GW441756] (first compound 2 µM, partner dose 0.4 µM)",102%
3,"O=C(Nc1ccccc1)c1cc([N+](=O)[O-])ccc1Cl + CCCCCCCCCCCC1=C(O)C(=O)C=C(O)C1=O [Embelin] (first compound 2 µM, partner dose 1.2 µM)",70.2%
4,"CCc1ccc(CCOc2ccc(CC3SC(=O)NC3=O)cc2)nc1 (stereo unspecified) [pioglitazone] + O=C(Nc1ccccc1)c1cc([N+](=O)[O-])ccc1Cl [GW9662] (first compound 2 µM, partner dose 2 µM)",44%
5,"COc1ccc2c(c1)CCC1C2CCC2(C)C(NCCCCCCN3C(=O)C=CC3=O)CCC12 (stereo unspecified) + CCCCCCCCCCCC1=C(O)C(=O)C=C(O)C1=O [Embelin] (first compound 0.4 µM, partner dose 1.2 µM)",120%
6,"Oc1cc(-c2nc(-c3ccccc3)[nH]c2-c2ccncc2)ccc1Cl + CCCCCCCCCCCC1=C(O)C(=O)C=C(O)C1=O [Embelin] (first compound 0.2 µM, partner dose 1.2 µM)",46.2%
7,"Oc1cc(-c2nc(-c3ccccc3)[nH]c2-c2ccncc2)ccc1Cl + Cc1cc([N+](=O)[O-])ccc1NS(=O)(=O)c1cc(Cl)ccc1Cl [FH535] (first compound 0.2 µM, partner dose 1 µM)",382%
8,"COc1cc2c(Oc3ccc4[nH]c(C)cc4c3F)ncnc2cc1OCCCN1CCCC1 [cediranib] + CCCCCCCCCCCC1=C(O)C(=O)C=C(O)C1=O [Embelin] (first compound 0.4 µM, partner dose 1.2 µM)",95.2%
9,"NCC(=O)Nc1ccc(-n2nc(C(F)(F)F)cc2-c2ccc3c(ccc4ccccc43)c2)cc1 + Cn1cc(/C=C2\C(=O)Nc3cccnc32)c2ccccc21 [GW441756] (first compound 1 µM, partner dose 0.4 µM)",44.9%
10,"Oc1nc(-c2ccc(C(F)(F)F)cc2)nc2c1CSCC2 + O=c1cc(-c2cccc3c2Sc2ccccc2S3)oc(N2CCOCC2)c1 [KU55933] (first compound 2 µM, partner dose 1 µM)",163%
11,"O=C(O)C(=O)Nc1sc2c(c1C(=O)O)CCNC2 + O=C1NC(=O)/C(=C/c2ccc(-c3ccc(F)cc3O)o2)S1 [AS252424] (first compound 1.66667 µM, partner dose 1 µM)",79.7%
12,"COC(=O)c1sccc1S(=O)(=O)Nc1ccc(Nc2ccccc2)cc1OC + COc1cc(N2CCC(N3CCN(C)CC3)CC2)ccc1Nc1ncc(Cl)c(Nc2ccccc2S(=O)(=O)C(C)C)n1 [NVP-TAE684] (first compound 1 µM, partner dose 0.08 µM)",58.6%
13,"NCC(=O)Nc1ccc(-n2nc(C(F)(F)F)cc2-c2ccc3c(ccc4ccccc43)c2)cc1 + COc1ccc(-c2ccc3c(N4CCOCC4)nc(N4C[C@@H](C)O[C@@H](C)C4)nc3n2)cc1CO [KU0063794] (first compound 1 µM, partner dose 0.02 µM)",123%
14,"CN(C)S(=O)(=O)c1ccc2c(c1)/C(=C/c1cc3c([nH]1)CCCC3)C(=O)N2 + N#Cc1c(O)c2c(-c3ccc(-c4ccccc4O)cc3)csc2[nH]c1=O [A769662] (first compound 0.4 µM, partner dose 2 µM)",180%
15,"CN(C)S(=O)(=O)c1ccc2c(c1)/C(=C/c1cc3c([nH]1)CCCC3)C(=O)N2 + Oc1nc(-c2ccc(C(F)(F)F)cc2)nc2c1CSCC2 [XAV939] (first compound 0.4 µM, partner dose 2 µM)",131%
16,"COc1cc2ncnc(Nc3ccc(Oc4ccccc4)cc3)c2cc1OC + Oc1cc(-c2nc(-c3ccccc3)[nH]c2-c2ccncc2)ccc1Cl [L779450] (first compound 2 µM, partner dose 0.2 µM)",90.4%
17,"NCC(=O)Nc1ccc(-n2nc(C(F)(F)F)cc2-c2ccc3c(ccc4ccccc43)c2)cc1 + CCCCCCCCCCCC1=C(O)C(=O)C=C(O)C1=O [Embelin] (first compound 1 µM, partner dose 1.2 µM)",44.5%
18,"COc1cc2ncnc(Nc3ccc(Oc4ccccc4)cc3)c2cc1OC + c1cc(-c2cnn3cc(-c4ccc(OCCN5CCCCC5)cc4)cnc23)ccn1 [Dorsomorphin] (first compound 2 µM, partner dose 0.4 µM)",72.1%

# Quoted from above for reference:
row,SMILES,cleaved PARP positive nuclei fraction
6,"Oc1cc(-c2nc(-c3ccccc3)[nH]c2-c2ccncc2)ccc1Cl + CCCCCCCCCCCC1=C(O)C(=O)C=C(O)C1=O [Embelin] (first compound 0.2 µM, partner dose 1.2 µM)",46.2%
7,"Oc1cc(-c2nc(-c3ccccc3)[nH]c2-c2ccncc2)ccc1Cl + Cc1cc([N+](=O)[O-])ccc1NS(=O)(=O)c1cc(Cl)ccc1Cl [FH535] (first compound 0.2 µM, partner dose 1 µM)",382%

# Source: the supplement of paper PMC4604168 (melanoma cell lines)
